Data as given in US7819855B2, “Catheter for modification of agent formulation” (Durect Corporation, priority 2001, dated 2010).
Where “and” joins values, the source holds several entries; their conditions need not be identical. Identical values can stand only once. Counter-ions that a name gives are not always drawn.

Test: Dilution of baclofen HCl solution during transit through Silastic tubing catheter connected to DUROS osmotic pump, immersed in water bath, HPLC analysis
Conditions: water bath 37° C., ten days; for Dilution Ratio Cι/Co: Co = 336.5 mg/cc
Method: An osmotic pump (DUROS™) was connected to an elongate body comprising a catheter coupled with a length of Silastic™ tubing having the same ID and OD as described above. The pump was filled with baclofen HCl in 100% DMSO (drug concentration (Co) 336.5 mg/cc), with the pumping rate determined to be about 3.48 μl/day (0.145 μl/hr). A mark was placed on the catheter at 5.22 cm from the connector to the pump. The pump and the section of catheter up to the mark were immersed in a water bath at 37° C. for ten days, after which the pumps were removed. The catheter were clamped at slightly above the 5.22 cm marks, and cut with a pair of scissors. The drug solution above the 5.22 cm mark was collected in separate flaks. Each catheter was further rinsed three times with 150 μl deionized water using a Hamilton syringe. The drug solution and the rinse were combined with diluted to volume for HPLC analysis to determine drug concentration.

[1] = baclofen HCl in 100% DMSO, Co 336.5 mg/cc, pumping rate about 3.48 μl/day

NCC(CC(=O)O)c1ccc(Cl)cc1 (centres unmarked) [Baclofen HCl]
Dilution Ratio Cι/Co: 0.163 and 0.215
Dilution Ratio Cι/Co (listed as baclofen HCl): 0.163 and 0.215
Distance drug solution traveled above the 5.22 cm mark [1]: 5.3 cm and 7.5 cm
Total volume of drug solution above 5.22 cm mark [1]: 0.0168 cc and 0.0238 cc
Drug concentration (Cι) in Silastic catheter above the 5.22 cm mark (baclofen HCl in 100% DMSO, Co 336.5 mg/cc, pumping rate about 3.48 μl/day, HPLC): 54.8 mg/cc and 72.3 mg/cc
